Measurements taken from article doi:10.1101/2022.03.24.485634.

Molecular target: mt-ELP3-Flag (ELP3/Kat9 203 spliced isoform, mitochondrial ELP3) (human)
Test: co-IP

B1: GTPBP3 (NM_001128855) Human Tagged ORF Clone, expressed from pCMV6 (protein, UniProt Q969Y2-3 21-471)
chain: TRRSSGAPAPGSGATIFALSSGQGRCGIAVIRTSGPASGHALRILTAPRDLPLARHASLRLLSDPRSGEPLDRALVLWFPGPQSFTGEDCVEFHVHGGPAVVSGVLQALGSVPGLRPAEAGEFTRRAFANGKLNLTEVEGLADLIHAETEAQRRQALRQLDGELGHLCRGWAETLTKALAHVEAYIDFGEDDNLEEGVLEQADIEVRALQVALGAHLRDARRGQRLRSGVHVVVTGPPNAGKSSLVNLLSRKPVSIVSPEPGTTRDVLETPVDLAGFPVLLSDTAGLREGVGPVEQEGVRRARESCNFLATVVASVGAQSPSDSSQRLLLVLNKSDLLSPEGPGPGPDLPPHLLLSCLTGEGLDGLLEALRKELAAVCGDPSTDPPLLTRARHQHHLQGCLDALGHYKQSKDLALAAEALRVARGHLTRLTGGGGTEEILDIIFQDFCVGK
  binding: binds

These are yes or no findings as the source states them, for the method shown. Binding seen in cells or lysates may run through a third protein. Binding can be weak; no strength is given. Tags and fused reporters may be left off the sequences shown.
